Results: patent US11738096B2, “Method of detecting diseased or damaged tissue with a pH-triggered polypeptide fluorophore composition” (University of Rhode Island Board of Trustees, priority 2016, dated 2023)
“Also recorded” adds a separate entry of the source. Part of at least one peptide drawing is inferred or uncertain, most often the ends. At least one structure is not confirmed: it was looked up by name or label, or the drawing left a doubt. Some of these results come from one statement about several compounds together. Where a SMILES comes first, the peptide text is derived from it. The star is where a group is joined. X1 = CC1(C)C(/C=C/C=C/C=C/C=C2/N(CCCCCC(=O)NCCN3C(=O)CC(*)C3=O)c3ccc4ccccc4c3C2(C)C)=[N+](CCCCS(=O)(=O)[O-])c2ccc3ccccc3c21

Legend:
[1] = system: urothelial carcinoma in human bladder specimens; experiment: Ex vivo NIR fluorescence imaging of radical cystectomy bladder specimens, 60 min instillation
Method: 22 urothelial carcinoma patients that were scheduled for radical cystectomy were selected over a twelve month period. After radical cystectomy, bladder specimens were immediately removed and irrigated 3 times for 5 min via catheter with non-buffered saline and instilled and incubated with 80 ml of 8 μM or 32.8 μg/ml (unless otherwise is stated, see notes to Table 8) of ICG-Var3 construct or ICG-Cys in PBS pH 7.4 containing 10 mM D-glucose for 60 minutes. Then, the unbound constructs were removed by rinsing with 80 ml of saline solution 3-5 times, the bladder was irrigated thoroughly with buffered saline and opened using a Y incision on the anterior wall. Using a da Vinci Si near-infrared fluorescence imaging system (Firefly^R), ex vivo fluorescent and white light imaging of the entire bladder and its parts was performed. The fluorescent spots were marked and standard pathological analysis was carried out to explore the correlation between appearance of fluorescent signal and cancer lesions.
The specimen was sectioned and submitted after 24 hour fixation in 10% phosphate-buffered formalin according to the standard institutional grossing manual, with emphasis on the marked areas of the bladder. The sections were processed for routine histology into paraffin-embedded blocks. Five micrometer thick tissue sections were obtained and stained for hematoxylin and eosin (H&E). Evaluation of pathology was performed by a genitourinary (GU) pathologist, and a standard report was prepared based on the American Joint Committee on Cancer (AJCC) Cancer Staging Manual, 7th edition, 2010.
Statistical parameters were calculated according to the following equations: […]
Where TP is the true positive; TN is the true negative; FP is the false positive; FN is the false negative; TRP is the true positive rate or sensitivity; SPC is the true negative rate or specificity; PPV is the positive predictive value or precision; NPV is the negative predictive values; FPR is the false positive rate; FNR is the false negative rate; FDR is the false discovery rate; FOR is the false omission rate.

[2] = system: cancerous lesions in human bladder tissue; experiment: Ex vivo imaging of human bladder after cystectomy, 15 min instillation, NIR endoscope; conditions: 4 μM of 80 mL (1.34 mg) in PBS with glucose
[3] = system: cancerous lesions in human upper urinary tract tissue; experiment: Ex vivo imaging of upper urinary tract tissue; conditions: 4 μM of 80 mL or 1.34 mg
[4] = system: cancerous lesions in kidney tissue; experiment: Ex vivo imaging of kidney perfused through the artery after radical nephrectomy; design: species or system human; conditions: perfused 30 min through the artery, washed with saline
[5] = system: 4T1 murine mammary carcinoma; experiment: Tumor targeting in mice bearing 4T1 tumors; format: in vivo, mouse
Method: Adult female nude mice and female BALB/cAnNHsd mice (Envigo), 20-25 g in body mass were used in the study. Mouse mammary cancer 4T1 cells were subcutaneously implanted in the right flank (8×10^5 cells/0.1 mL/flank) of adult female BALB/cAnNHsd mice. Rat bladder cancer AY27 cells were subcutaneously implanted in the right flank (8×10^5 cells/0.1 mL/flank) of adult female nude mice. When tumors reached approximately 5-6 mm in diameter, single tail vein injection or single intraperitoneal injection of fluorophore-pHLIP® solutions in PBS were performed. Fluorescent constructs were used in amounts of 100 μL of 40 μM, or 100 μL of 20 μM, or 100 μL of 10 μM, or 100 μL of 5 μM. Imaging of mouse was performed at 16 hours after constructs administration. Skin was removed from the tumor site just before imaging while animal was under gas anesthesia, and mice were euthanized immediately after imaging. Tumor, kidney and liver were harvested, imaged and used for histopathological analysis. Imaging was performed using Stryker clinical imaging instrument. Autofluorescence was established by imaging mouse with no injection of fluorescent constructs (the level of autofluorescence signal was insignificant compared to the signal after the constructs administration).

AY27 rat bladder cancer = experiment: Tumor targeting of AY27 tumors in nude mice; format: in vivo, mouse; conditions: IV, 40 μM, 100 μL, 16 h
[6] = NIR fluorescence imaging of blood vessels and blood flow (ear, leg, blood samples) in mice; format: in vivo, mouse
Method: Adult female nude mice (Envigo), 20 g in body mass were used in the study. Fluorescent constructs were given as a single tail vein injection in amounts of 100 μL of 40 μM in PBS. Imaging of mouse ear and leg was performed at 5, 30, 60, 90 and 120 min after construct administration. At 5, 30, 60, 90 and 120 min after construct administration 5 μL of blood was withdrawn from tail (and mixed with 5 μL of anticoagulating solution to preserve blood) while animal was under anesthesia. Mice were euthanized immediately after last imaging point (120 min). Blood collected from all animals was deposited on the glass slide, dried and imaged. Imaging was performed using Novadaq clinical imaging instrument. Autofluorescence was established by imaging mouse with no injection of fluorescent constructs (the level of autofluorescence signal was insignificant compared to the signal after the constructs administration).

[7] = carcinoma vs normal + necrosis (including necrotic tissue and treatment effects)
[8] = carcinoma vs normal excluding necrotic tissue and treatment effects
[9] = excluding necrotic tissue and treatment effects
[10] = including necrotic tissue and treatment effects

CC(C)C[C@H](NC(=O)[C@H](Cc1ccc(O)cc1)NC(=O)[C@H](C)NC(=O)[C@H](CCCNC(=N)N)NC(=O)[C@H](Cc1c[nH]c2ccccc12)NC(=O)[C@@H]1CCCN1C(=O)[C@H](CC(N)=O)NC(=O)[C@H](CCC(N)=O)NC(=O)[C@H](CC(=O)O)NC(=O)[C@H](CC(=O)O)NC(=O)[C@H](CSC1CC(=O)N(CCNC(=O)CCCCCN2/C(=C/C=C/C=C/C=C/C3=[N+](CCCCS(=O)(=O)[O-])c4ccc5ccccc5c4C3(C)C)C(C)(C)c3c2ccc2ccccc32)C1=O)NC(=O)[C@H](C)N)C(=O)N[C@@H](CC(=O)O)C(=O)N[C@@H](CC(C)C)C(=O)N[C@@H](CC(C)C)C(=O)N[C@@H](Cc1ccccc1)C(=O)N1CCC[C@H]1C(=O)N[C@H](C(=O)N[C@@H](CC(=O)O)C(=O)N[C@H](C(=O)N[C@@H](CC(C)C)C(=O)N[C@@H](CC(C)C)C(=O)N[C@@H](CC(C)C)C(=O)N[C@@H](CC(=O)O)C(=O)N[C@@H](CC(C)C)C(=O)N[C@@H](CC(C)C)C(=O)N[C@@H](Cc1c[nH]c2ccccc12)C(=O)N[C@@H](C)C(=O)O)[C@@H](C)O)[C@@H](C)O (stereo partly drawn) [ICG-Var3] (H-AC(X1)DDQNPWRAYLDLLFPTDTLLLDLLWA-OH)
CIS found by near-infrared fluorescence imaging and not observed by white light inspection [1]: 7 cases | targeting of normal bladder tissue ([1]; FIG. 8F, G): not targeted | sensitivity of targeting of cancerous tissue versus normal ([1]; bladder lesions): 97% | FN, false negative [1, 7]: FN, 1 | FP, false positive [1, 7]: FP, 5 | TN, true negative [1, 7]: TN, 20 | TP, true positive [1, 7]: TP, 28 | FN, false negative [1, 8]: FN, 1 | FP, false positive [1, 8]: FP, 0 | TN, true negative [1, 8]: TN, 19 | TP, true positive [1, 8]: TP, 28 | signal in cystitis cystica lesion without other pathology ([1]; case #9, 8 μM): positive signal | effect of reducing the concentration on targeting of high grade invasive carcinoma and CIS ([1]; case #17, 4 μM): did not affect targeting | staining of cystitis cystica ([1]; case #18, instilled concentration reduced to 4 μM): not stained | specificity of targeting of cancerous tissue versus normal ([1]; excluding necrotic and previously treated tissue): 100% | False negative rate, FNR [1, 9]: 0.034 | False omission rate, FOR [1, 9]: 0.053 | False positive rate, FPR [1, 9]: 0.000 | Negative predictive values, NPV [1, 9]: 0.950 | Positive predictive value, PPV [1, 9]: 1.000 | Sensitivity, TRP [1, 9]: 0.966 | Specificity, SPC [1, 9]: 1.000 | False negative rate, FNR [1, 10]: 0.034 | False omission rate, FOR [1, 10]: 0.040 | False positive rate, FPR [1, 10]: 0.020 | Negative predictive values, NPV [1, 10]: 0.952 | Positive predictive value, PPV [1, 10]: 0.848 | Sensitivity, TRP [1, 10]: 0.966 | Specificity, SPC [1, 10]: 0.800 | specificity if targeting of necrotic and previously treated tissue is considered false positive ([1]; necrotic/treated tissue counted as false positives): 80% | carcinoma in situ (CIS) accurately diagnosed ([1]; only 4 cases seen using white light): 11 cases | pathological diagnosis of tissue within the fluorescent outline/contour [2]: invasive high grade transitional cell cancer (TCC); also recorded: carcinoma in situ | pathological diagnosis of tissue within the fluorescent outline/contour [3]: invasive high grade TCC | NIR fluorescence imaging of kidney [4]: targeting of cancerous lesions in kidney tissue | tumor targeting after intravenous and intraperitoneal administration ([5]; 10 μM, IV and IP, 16 h): excellent tumor targeting and visualization of tumors | fluorescent signal in tumor / tumor visualization, ICG-Var3 compared to IR800-Var3 ([5]; 20 μM each, IV, 16 h, clinical endoscope): higher; also recorded: much better | precision of tumor targeting ([5]; 20 μM, IV, 16 h): target tumor with high precision | targeting of muscle tissue ([5]; FIG. 18): not targeted | targeting of 4T1 tumor ([5]; IV, 40 μM, 100 μL, imaged 16 h after injection): excellent targeting | dependence of fluorescent signal in tumor, kidney and liver on injected concentration ([5]; IV, 20, 10 and 5 μM, 16 h): decreased with the decrease of the injected; also recorded: showed concentration dependence | fluorescent signal in tumor relative to kidney and liver ([5]; IV, 16 h): higher than in kidney and similar or slightly less than in liver | visualization of tumor margins ([5]; tumor masses with surrounding muscle removed from mice, FIG. 18): defined very well | targeting of AY27 tumor (AY27 rat bladder cancer): targeting of AY27 rat bladder cancer | imaging of blood vessels in ear and leg ([6]; IV 100 μL of 40 μM, 5, 30, 60, 90, 120 min): excellent persistent imaging of blood vessels within 2 hours | time of imaging of blood vessels and blood flow ([6]; after one IV injection): 2 to 3 h
